{"sequences": {"note": "By UniProt entry, the sequences of proteins in these tests, tags left out.", "UniProt O95819": "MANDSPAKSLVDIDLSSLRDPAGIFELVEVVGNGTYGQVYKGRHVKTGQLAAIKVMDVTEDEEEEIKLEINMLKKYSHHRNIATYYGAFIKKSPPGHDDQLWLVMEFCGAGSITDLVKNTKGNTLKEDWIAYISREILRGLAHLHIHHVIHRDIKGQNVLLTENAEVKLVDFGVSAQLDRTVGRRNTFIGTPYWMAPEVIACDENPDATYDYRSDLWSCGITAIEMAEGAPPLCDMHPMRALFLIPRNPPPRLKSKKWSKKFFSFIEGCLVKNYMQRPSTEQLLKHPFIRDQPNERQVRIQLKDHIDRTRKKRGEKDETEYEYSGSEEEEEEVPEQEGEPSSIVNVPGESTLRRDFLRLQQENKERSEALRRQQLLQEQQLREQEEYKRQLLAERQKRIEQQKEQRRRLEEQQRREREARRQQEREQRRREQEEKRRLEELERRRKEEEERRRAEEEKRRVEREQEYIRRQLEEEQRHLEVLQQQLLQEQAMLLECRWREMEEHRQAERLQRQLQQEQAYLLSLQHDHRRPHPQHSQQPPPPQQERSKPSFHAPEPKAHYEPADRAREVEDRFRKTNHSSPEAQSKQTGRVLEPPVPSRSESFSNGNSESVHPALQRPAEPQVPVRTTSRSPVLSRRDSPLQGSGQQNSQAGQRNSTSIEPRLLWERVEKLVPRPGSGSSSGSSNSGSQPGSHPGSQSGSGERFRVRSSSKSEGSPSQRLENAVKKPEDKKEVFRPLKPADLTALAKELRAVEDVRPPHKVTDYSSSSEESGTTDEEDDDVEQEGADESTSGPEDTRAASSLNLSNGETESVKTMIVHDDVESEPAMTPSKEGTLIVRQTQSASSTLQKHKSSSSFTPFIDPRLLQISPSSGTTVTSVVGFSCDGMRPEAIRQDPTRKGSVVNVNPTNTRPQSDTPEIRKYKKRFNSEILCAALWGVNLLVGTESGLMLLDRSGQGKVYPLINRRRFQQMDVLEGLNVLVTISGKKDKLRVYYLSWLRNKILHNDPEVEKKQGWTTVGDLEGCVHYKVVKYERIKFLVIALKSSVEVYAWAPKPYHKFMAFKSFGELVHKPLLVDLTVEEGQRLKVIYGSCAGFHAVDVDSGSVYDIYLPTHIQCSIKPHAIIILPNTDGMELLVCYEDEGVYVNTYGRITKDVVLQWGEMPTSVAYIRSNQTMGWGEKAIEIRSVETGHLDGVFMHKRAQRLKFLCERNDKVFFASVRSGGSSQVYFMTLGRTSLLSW", "UniProt P67775": "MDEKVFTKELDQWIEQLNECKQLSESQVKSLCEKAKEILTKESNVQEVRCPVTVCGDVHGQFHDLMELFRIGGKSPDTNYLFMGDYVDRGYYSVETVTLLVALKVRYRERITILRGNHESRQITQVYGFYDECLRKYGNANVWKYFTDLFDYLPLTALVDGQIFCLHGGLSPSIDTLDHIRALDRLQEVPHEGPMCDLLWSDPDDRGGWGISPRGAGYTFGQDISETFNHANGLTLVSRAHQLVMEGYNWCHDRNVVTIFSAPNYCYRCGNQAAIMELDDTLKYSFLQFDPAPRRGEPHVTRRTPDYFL", "UniProt P03081": "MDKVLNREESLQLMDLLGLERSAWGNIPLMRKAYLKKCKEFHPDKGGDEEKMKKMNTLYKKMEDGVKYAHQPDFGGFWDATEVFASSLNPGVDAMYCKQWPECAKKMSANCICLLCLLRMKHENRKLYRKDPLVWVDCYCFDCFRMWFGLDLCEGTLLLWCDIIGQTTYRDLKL", "UniProt P30153": "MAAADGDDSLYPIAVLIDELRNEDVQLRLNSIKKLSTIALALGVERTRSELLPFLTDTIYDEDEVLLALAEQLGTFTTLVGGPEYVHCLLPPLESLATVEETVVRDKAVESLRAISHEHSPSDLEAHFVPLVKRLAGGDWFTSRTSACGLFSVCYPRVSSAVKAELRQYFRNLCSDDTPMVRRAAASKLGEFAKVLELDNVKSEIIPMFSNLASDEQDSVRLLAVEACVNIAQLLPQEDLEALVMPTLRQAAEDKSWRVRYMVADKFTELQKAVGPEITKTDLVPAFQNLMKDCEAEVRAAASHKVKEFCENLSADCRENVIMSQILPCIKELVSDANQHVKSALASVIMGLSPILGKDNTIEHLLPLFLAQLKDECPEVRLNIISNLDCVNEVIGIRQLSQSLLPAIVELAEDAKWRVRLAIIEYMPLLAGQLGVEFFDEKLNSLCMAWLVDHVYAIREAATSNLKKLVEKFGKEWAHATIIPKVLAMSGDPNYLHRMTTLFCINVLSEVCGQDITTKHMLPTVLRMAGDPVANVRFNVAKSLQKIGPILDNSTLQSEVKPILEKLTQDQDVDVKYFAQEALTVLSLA"}, "source": "paper PMC6984821", "molecules": {"B1": {"name": "STRN3, endogenous (protein, UniProt Q13033 1-797)", "chain": "MDELAGGGGGGPGMAAPPRQQQGPGGNLGLSPGGNGAAGGGGPPASEGAGPAAGPELSRPQQYTIPGILHYIQHEWARFEMERAHWEVERAELQARIAFLQGERKGQENLKKDLVRRIKMLEYALKQERAKYHKLKYGTELNQGDLKMPTFESEETKDTEAPTAPQNSQLTWKQGRQLLRQYLQEVGYTDTILDVRSQRVRSLLGLSNSEPNGSVETKNLEQILNGGESPKQKGQEIKRSSGDVLETFNFLENADDSDEDEENDMIEGIPEGKDKHRMNKHKIGNEGLAADLTDDPDTEEALKEFDFLVTAEDGEGAGEARSSGDGTEWDKDDLSPTAEVWDVDQGLISKLKEQYKKERKGKKGVKRANRTKLYDMIADLGDDELPHIPSGIINQSRSASTRMTDHEGARAEEAEPITFPSGGGKSFIMGSDDVLLSVLGLGDLADLTVTNDADYSYDLPANKDAFRKTWNPKYTLRSHFDGVRALAFHPVEPVLVTASEDHTLKLWNLQKTVPAKKSASLDVEPIYTFRAHIGPVLSLAISSNGEQCFSGGIDATIQWWNMPSPSVDPYDTYEPNVLAGTLVGHTDAVWGLAYSGIKNQLLSCSADGTVRLWNPQEKLPCICTYNGDKKHGIPTSVDFIGCDPAHMVTSFNTGSAVIYDLETSQSLVILSSQVDSGLQSNNHINRVVSHPTLPVTITAHEDRHIKFFDNKTGKMIHSMVAHLDAVTSLAVDPNGIYLMSGSHDCSIRLWNLDSKTCVQEITAHRKKLDESIYDVAFHSSKAYIASAGADALAKVFV"}, "B2": {"name": "STRN4, endogenous (protein, UniProt Q9NRL3 1-753)", "chain": "MMEERAAAAVAAAASSCRPLGSGAGPGPTGAAPVSAPAPGPGPAGKGGGGGGSPGPTAGPEPLSLPGILHFIQHEWARFEAEKARWEAERAELQAQVAFLQGERKGQENLKTDLVRRIKMLEYALKQERAKYHKLKFGTDLNQGEKKADVSEQVSNGPVESVTLENSPLVWKEGRQLLRQYLEEVGYTDTILDMRSKRVRSLLGRSLELNGAVEPSEGAPRAPPGPAGLSGGESLLVKQIEEQIKRNAAGKDGKERLGGSVLGQIPFLQNCEDEDSDEDDELDSVQHKKQRVKLPSKALVPEMEDEDEEDDSEDAINEFDFLGSGEDGEGAPDPRRCTVDGSPHELESRRVKLQGILADLRDVDGLPPKVTGPPPGTPQPRPHEDVFIMDTIGGGEVSLGDLADLTVTNDNDLSCDLSDSKDAFKKTWNPKFTLRSHYDGIRSLAFHHSQSALLTASEDGTLKLWNLQKAVTAKKNAALDVEPIHAFRAHRGPVLAVAMGSNSEYCYSGGADACIHSWKIPDLSMDPYDGYDPSVLSHVLEGHGDAVWGLAFSPTSQRLASCSADGTVRIWDPSSSSPACLCTFPTASEHGVPTSVAFTSTEPAHIVASFRSGDTVLYDMEVGSALLTLESRGSSGPTQINQVVSHPNQPLTITAHDDRGIRFLDNRTGKPVHSMVAHLDAVTCLAVDPNGAFLMSGSHDCSLRLWSLDNKTCVQEITAHRKKHEEAIHAVACHPSKALIASAGADALAKVFV"}, "B3": {"name": "CTTNBP2NL, endogenous (protein, UniProt Q9P2B4 1-639)", "chain": "MNLEKLSKPELLTLFSILEGELEARDLVIEALKAQHRDTFIEERYGKYNISDPLMALQRDFETLKEKNDGEKQPVCTNPLSILKVVMKQCKNMQERMLSQLAAAESRHRKVILDLEEERQRHAQDTAEGDDVTYMLEKERERLTQQLEFEKSQVKKFEKEQKKLSSQLEEERSRHKQLSSMLVLECKKATNKAAEEGQKAGELSLKLEKEKSRVSKLEEELAAERKRGLQTEAQVEKQLSEFDIEREQLRAKLNREENRTKTLKEEMESLKKIVKDLEASHQHSSPNEQLKKPVTVSKGTATEPLMLMSVFCQTESFPAERTHGSNIAKMTNTGLPGPATPAYSYAKTNGHCDPEIQTTRELTAGNNVENQVPPREKSVALAQEKPVENGGCPVGIETPVPMPSPLSSSGSSLSPSSTASSSLTSSPCSSPVLTKRLLGSSASSPGYQSSYQVGINQRFHAARHKFQSQADQDQQASGLQSPPSRDLSPTLIDNSAAKQLARNTVTQVLSRFTSQQGPIKPVSPNSSPFGTDYRNLANTANPRGDTSHSPTPGKVSSPLSPLSPGIKSPTIPRAERGNPPPIPPKKPGLTPSPSATTPLTKTHSQAASLTTAEDLASSCSSNTVVANGKDVELLLPTSS"}, "B4": {"name": "SIKE1, endogenous (protein, UniProt Q9BRV8 1-207)", "chain": "MSCTIEKILTDAKTLLERLREHDAAAESLVDQSAALHRRVAAMREAGTALPDQYQEDASDMKDMSKYKPHILLSQENTQIRDLQQENRELWISLEEHQDALELIMSKYRKQMLQLMVAKKAVDAEPVLKAHQSHSAEIESQIDRICEMGEVMRKAVQVDDDQFCKIQEKLAQLELENKELRELLSISSESLQARKENSMDTASQAIK"}, "B5": {"name": "SLMAP, endogenous (protein, UniProt Q14BN4 1-828)", "chain": "MPSALAIFTCRPNSHPFQERHVYLDEPIKIGRSVARCRPAQNNATFDCKVLSRNHALVWFDHKTGKFYLQDTKSSNGTFINSQRLSRGSEESPPCEILSGDIIQFGVDVTENTRKVTHGCIVSTIKLFLPDGMEARLRSDVIHAPLPSPVDKVAANTPSMYSQELFQLSQYLQEALHREQMLEQKLATLQRLLAITQEASDTSWQALIDEDRLLSRLEVMGNQLQACSKNQTEDSLRKELIALQEDKHNYETTAKESLRRVLQEKIEVVRKLSEVERSLSNTEDECTHLKEMNERTQEELRELANKYNGAVNEIKDLSDKLKVAEGKQEEIQQKGQAEKKELQHKIDEMEEKEQELQAKIEALQADNDFTNERLTALQVRLEHLQEKTLKECSSLEHLLSKSGGDCTFIHQFIECQKKLIVEGHLTKAVEETKLSKENQTRAKESDFSDTLSPSKEKSSDDTTDAQMDEQDLNEPLAKVSLLKDDLQGAQSEIEAKQEIQHLRKELIEAQELARTSKQKCFELQALLEEERKAYRNQVEESTKQIQVLQAQLQRLHIDTENLREEKDSEITSTRDELLSARDEILLLHQAAAKVASERDTDIASLQEELKKVRAELERWRKAASEYEKEITSLQNSFQLRCQQCEDQQREEATRLQGELEKLRKEWNALETECHSLKRENVLLSSELQRQEKELHNSQKQSLELTSDLSILQMSRKELENQVGSLKEQHLRDSADLKTLLSKAENQAKDVQKEYEKTQTVLSELKLKFEMTEQEKQSITDELKQCKNNLKLLREKGNNKPWPWMPMLAALVAVTAIVLYVPGLARASP"}}, "key": {"[1]": {"biological_target": "T1, STRN4, endogenous (human (endogenous in HEK TER, IMR90)) (UniProt Q9NRL3)", "T1 sequence": "B2 chain", "test": "affinity purification with mass spectrometry; endogenous STRN4 isolated with STRN4 antibody crosslinked to protein A agarose from extracts of HEK TER cells expressing SV40 ST or GFP, overnight at 4C, washes with 300 mM NaCl; MudPIT"}, "[2]": {"biological_target": "NTAP-MAP4K4 (N-terminal Flag-HA tagged MAP4K4) (human) (UniProt O95819)", "test": "affinity purification with mass spectrometry; FLAG immunoprecipitation of NTAP-MAP4K4 from combined extracts of SILAC-encoded HEK TER cells expressing ST or GFP; two independent IPs"}, "[3]": {"biological_target": "T1, STRN4, endogenous (human (endogenous in HEK TER, IMR90))", "test": "affinity purification with mass spectrometry; endogenous STRN4 isolated with STRN4 antibody crosslinked to protein A agarose from extracts of HEK TER cells expressing SV40 ST or GFP, overnight at 4C, washes with 300 mM NaCl; MudPIT", "remark": "listed apart in the source"}}, "note": "Like-named read-outs stand apart in the source and are kept apart here. These are yes or no findings as the source states them, for the method shown. Binding seen in cells or lysates may run through a third protein. These calls come from enrichment with a bait or labelling near it, and not all partners need be listed.", "data": [{"molecule": "PP2A C (catalytic) subunit, endogenous (from UniProt P67775 1-309)", "values": [{"measurement": "binding", "setting": "[1]", "result": "binds"}]}, {"molecule": "SV40 Small T antigen as expressed in HEK TER ST cells (from UniProt P03081 1-174)", "values": [{"measurement": "binding", "setting": "[1]", "result": "binds"}]}, {"molecule": "PP2A Aα subunit, endogenous (from UniProt P30153 1-589)", "values": [{"measurement": "binding", "setting": "[2]", "result": "binds"}]}, {"molecule": "mitogen-activated protein kinase kinase kinase kinase 4 (MAP4K4), endogenous (from UniProt O95819 1-1239)", "values": [{"measurement": "binding", "setting": "[1]", "result": "binds"}]}, {"molecule": "B1", "values": [{"measurement": "binding", "setting": "[2]", "result": "binds"}]}, {"molecule": "B2", "values": [{"measurement": "binding", "setting": "[2]", "result": "binds"}]}, {"molecule": "B3", "values": [{"measurement": "binding", "setting": "[3]", "result": "binds"}]}, {"molecule": "B4", "values": [{"measurement": "binding", "setting": "[3]", "result": "binds"}]}, {"molecule": "B5", "values": [{"measurement": "binding", "setting": "[3]", "result": "binds"}]}]}
